PubChem BioAssay AID504774 – Drosophila RNAi Screening Center – 2011

Test: 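Genes required for cells to withstand methyl methanesulphonate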 (primary screen)
System: Drosophila Kc167 cells
Reagents: long dsRNA against Drosophila genes, about 0.25 µg dsRNA per well
Time to read-out: about 6 days: 3 days knock-down, then 3 days with or without MMS
Treatment: methyl methanesulphonate 0.004% (w/v) for 3 days after knock-down
Measured: 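Viability in wells given MMS, read as ATP luminescence, normalised by quantiles plate by plate and averaged across replicates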
Reading the numbers: mean viability with MMS: higher = more surviving cells after MMS
In all, the deposit lists about 23,000 reagents; shown is a random part of those that have a named target and a result. 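Values are quantile-normalised luminescence on an arbitrary scale; higher means more cells surviving MMS.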 A plus sign joins genes that one reagent is predicted to hit. Not all columns of the deposit are shown.

Silencing of CG34135 + Nasp [SID104196189] came out at: mean viability with MMS 3.33e6.
Knock-down of sli [SID104187476] came out at: mean viability with MMS 3.53e6.
CG2291 [SID104186628] showed mean viability with MMS 3.63e6.
eIF3m [SID104186934] showed mean viability with MMS 3.04e6.
After knock-down of CSN1a [SID104181743], the record shows mean viability with MMS 3.46e6.
For Rbp4 [SID104196610], the entry reads mean viability with MMS 3.86e6.
Depletion of CG10950 [SID104185812] came out at: mean viability with MMS 3.62e6.
Silencing of mthl3 [SID104186789] resulted in: mean viability with MMS 3.83e6.
After knock-down of D1 [SID104196430] the results were mean viability with MMS 3.67e6.
Silencing of glo [SID104195937] gave: mean viability with MMS 3.23e6.
Against CG4752 [SID104184278] the deposit lists mean viability with MMS 3.39e6.
Silencing of EndoG [SID104187084] gave: mean viability with MMS 3.77e6.
For EndoG [SID104202118] the deposit lists mean viability with MMS 3.50e6.
CG5895 [SID104190346] showed mean viability with MMS 3.52e6.
After knock-down of Xpd [SID104184458] the results were mean viability with MMS 3.56e6.
Silencing of ltl [SID104189998] came out at: mean viability with MMS 3.65e6.
ltl [SID104190662] scored mean viability with MMS 3.53e6.
Knock-down of CG10947 [SID104181903] came out at: mean viability with MMS 3.34e6.
Against Cyp40 [SID104190772], the values are mean viability with MMS 3.55e6.
Depletion of CG16734 [SID104194935] resulted in: mean viability with MMS 3.24e6.
After knock-down of CG42354 + CG42353 [SID104199964], the screen gave mean viability with MMS 3.23e6.
With knock-down of CG33758 [SID104184950], the screen gave mean viability with MMS 3.57e6.
Depletion of Paip1 [SID104187094] resulted in: mean viability with MMS 3.33e6.
With knock-down of CG16896 [SID104184076], the screen gave mean viability with MMS 3.27e6.
For CG14015 [SID104182138] the deposit lists mean viability with MMS 3.39e6.
Oatp30B [SID104182519] gave mean viability with MMS 3.82e6.

4 of these entries, set out differently.
{"gene": "sli", "PubChem SID": "SID104187476", "mean viability with MMS": 3.53e6}
{"gene": "CG2291", "PubChem SID": "SID104186628", "mean viability with MMS": 3.63e6}
{"gene": "eIF3m", "PubChem SID": "SID104186934", "mean viability with MMS": 3.04e6}
{"gene": "CSN1a", "PubChem SID": "SID104181743", "mean viability with MMS": 3.46e6}

Next records follow.
After knock-down of CG8916 [SID104199912], the screen gave mean viability with MMS 3.53e6.
For CG7829 [SID104196114], the entry reads mean viability with MMS 3.63e6.
Kpc2 [SID104187427] gave mean viability with MMS 3.54e6.
For CG13309 [SID104189772], the values are mean viability with MMS 3.41e6.
Against CG17075 [SID104180275] the deposit lists mean viability with MMS 3.48e6.
CG10681 [SID104189569] showed mean viability with MMS 3.57e6.
Silencing of CG10681 [SID104201214] came out at: mean viability with MMS 3.74e6.
CG4119 [SID104197533] showed mean viability with MMS 3.34e6.
After knock-down of Pcl [SID104187295], the record shows mean viability with MMS 3.63e6.
Against Mpi [SID104196209] the deposit lists mean viability with MMS 3.54e6.
Against CG10510 [SID104191406], the entry reads mean viability with MMS 3.36e6.
After knock-down of CG9399 [SID104196280] the results were mean viability with MMS 3.73e6.
O-fut2 [SID104198400] gave mean viability with MMS 3.42e6.
After knock-down of Nepl10 [SID104187004] the results were mean viability with MMS 3.74e6.
CAH15 [SID104184326] gave mean viability with MMS 3.50e6.
Knock-down of CG18449 [SID104186546] came out at: mean viability with MMS 3.52e6.
Silencing of CG42656 [SID104192264] gave: mean viability with MMS 3.44e6.
wuc [SID104185944] gave mean viability with MMS 3.61e6.
With knock-down of bys [SID104198540], the screen gave mean viability with MMS 3.52e6.
